Test system: human colon cancer cell T84
Assay: Staining of cultured cells, confocal laser fluorescence microscopy
Format: cell-based
Procedure: In the present Example, Compound 7 was introduced into cultured human colon cancer cell T84 and its image was observed using a fluorescence microscope.
Human colon cancer cell T84 culture (cell stock-microbial stock-gene bank (ATCC) number CCL-248, supplied by Summit Pharmaceuticals International Corporation) in a sub-confluent state that had been cultured (37° C., 5% CO2) for two to four days in a glass bottom dish (35 mm, Matsunami Glass Ind., Ltd.) was washed with phosphoric acid buffered physiological saline solution. One hundred microliters of a DMSO solution of 2×10^−5 M of Compound 7 was added dropwise near the cells, and a reaction was allowed to occur for five minutes at room temperature. The cells were washed again using phosphoric acid buffered physiological saline solution and were immediately exposed to an argon laser (488 nm) to reach an excited state in the phosphoric acid buffered physiological saline solution. The response was observed using a confocal laser microscope (LSM510META manufactured by Carl Zeiss).
In the present Comparative Example, the compound shown below described in Reference 3 (Japanese Patent Application Public Disclosure No. 2008-291210) was used in place of Compound 7, and the fluorescence microscope images of the cultured human colon cancer cell T84 were examined in the manner described in Example 5.

CCCCCCN(CCCCCC)c1ccc(-c2ccc(-c3cc[n+](C)cc3)s2)cc1.F[B-](F)(F)F [Compound 7, 4-[5-(4-dihexylamino)phenyl]thiophene-2-yl-1-methylpyridinium tetrafluoroborate]
Time stained cells maintained the fluorescence (standing at room temperature): at least several hours

CN(C)c1ccc(-c2ccc(-c3ccc(S(=O)(=O)OCC(C)(C)C)cc3)s2)cc1 [reference compound]
Excitation needed to obtain fluorescence image (Comparative Example 1): only when excited by using a blue diode laser (405 nm)

— patent US20120015399A1, “FLUORESCENT SOLVATOCHROMIC PIGMENT” (National University Corporation Hokkaido University, priority 2009, published 2012)
